The source of these data is publication PMC5647368.

The chains behind the UniProt entries cited, without tags or fusion partners.
UniProt Q04206: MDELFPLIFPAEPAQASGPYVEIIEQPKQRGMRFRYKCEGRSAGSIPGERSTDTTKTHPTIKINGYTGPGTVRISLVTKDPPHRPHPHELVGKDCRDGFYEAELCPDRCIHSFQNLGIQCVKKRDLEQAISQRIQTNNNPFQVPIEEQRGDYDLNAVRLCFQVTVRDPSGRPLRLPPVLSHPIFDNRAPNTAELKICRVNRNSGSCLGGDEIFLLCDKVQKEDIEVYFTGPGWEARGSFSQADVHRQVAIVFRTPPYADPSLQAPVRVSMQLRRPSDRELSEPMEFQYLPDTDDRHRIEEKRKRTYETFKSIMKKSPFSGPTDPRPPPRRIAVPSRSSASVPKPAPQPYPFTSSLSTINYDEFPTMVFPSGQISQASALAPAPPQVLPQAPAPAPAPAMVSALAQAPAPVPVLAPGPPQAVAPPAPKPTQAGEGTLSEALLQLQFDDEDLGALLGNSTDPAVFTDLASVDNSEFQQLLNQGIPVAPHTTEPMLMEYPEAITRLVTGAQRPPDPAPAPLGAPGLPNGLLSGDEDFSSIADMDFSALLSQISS

Assay [1] addresses Flag-tagged p65/RelA full length (UniProt Q04206). Briefly: co-IP; extracts of HEK293T cells transfected with Flag-p65/RelA, HA-p62 and Myc-LRRC25 expression plasmids, harvested 24 h after transfection; immunoprecipitation and immunoblot. On the technique in general: In western blotting, separated proteins are transferred to a membrane and probed.
The target of the next assay is T1, Flag-LRRC25 full length (UniProt Q8N386).
T1 sequence: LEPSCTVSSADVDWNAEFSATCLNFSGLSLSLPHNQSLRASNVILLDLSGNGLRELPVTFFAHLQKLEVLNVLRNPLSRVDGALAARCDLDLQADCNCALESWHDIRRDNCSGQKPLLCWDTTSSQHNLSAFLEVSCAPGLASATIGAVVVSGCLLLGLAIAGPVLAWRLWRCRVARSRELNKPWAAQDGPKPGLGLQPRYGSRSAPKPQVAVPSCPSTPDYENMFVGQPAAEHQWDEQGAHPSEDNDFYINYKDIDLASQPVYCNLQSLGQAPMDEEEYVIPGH
The experiment in a line: co-IP; extracts of HEK293T cells co-transfected with two tagged constructs, harvested 24 h after transfection; immunoprecipitation (anti-Flag in Fig. 5D and 5F) and immunoblot for the other tag; beads washed six times with low-salt lysis buffer (50 mM Hepes pH 7.5, 150 mM NaCl, 1 mM EDTA, 1.5 mM MgCl2, 10% glycerol, 1% Triton X-100).

Assay [2] deals with p65/RelA (endogenous, THP-1 cells) (human (endogenous in THP-1)) (UniProt Q04206). Briefly: co-IP; endogenous proteins; THP-1 cells treated with or without LPS; cell extracts precipitated with anti-p65/RelA, immunoblot with anti-LRRC25 or anti-p62; IgG control.

Results are given in words; binding and its absence hold for the method and conditions named. Binding seen in cells or lysates may run through a third protein. Some binding calls cover weakened binding; strength is not graded here. For part of these data: Sequences can lack the tags named with a protein.

Consider HA-p62 (from UniProt Q13501 1-440), for which, in assay [1], the binding result is reported as “binds”.

Regarding HA-p65/RelA (from UniProt Q04206 1-551), the binding result with Flag-LRRC25 full length is given as “binds”. Turning to “p62 (encoded by SQSTM1) (endogenous, THP-1 cells) (from UniProt Q13501 1-440)”, the binding result in assay [2] is reported as “binds”.
